In the experiment the target is MinD fused to the T18 or T25 fragment of CyaA (bacterial two-hybrid) (C. difficile R20291) (UniProt Q18B12). Put plainly: two-hybrid; bacterial two-hybrid: N- and C-terminal fusions to the CyaA T18 and T25 fragments, pairs co-transformed into E. coli BTH101, spotted on LB-agar with X-gal and 0.5 mM IPTG, 24-36 hours at 30°C.

Protein sequences, listed by entry. Tags and fused reporters are not part of them.
UniProt Q18B12: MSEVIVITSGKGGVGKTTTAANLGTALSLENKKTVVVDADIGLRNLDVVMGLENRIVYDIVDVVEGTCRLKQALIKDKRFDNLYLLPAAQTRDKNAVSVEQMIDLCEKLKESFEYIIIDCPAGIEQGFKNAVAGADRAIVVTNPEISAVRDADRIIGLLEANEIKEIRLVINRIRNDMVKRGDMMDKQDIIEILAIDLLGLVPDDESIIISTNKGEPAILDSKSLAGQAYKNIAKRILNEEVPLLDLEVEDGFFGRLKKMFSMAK

Results are given in words; binding and its absence hold for the method and conditions named.

Turning to “MinD fused to the T18 or T25 fragment of CyaA (bacterial two-hybrid) (from UniProt Q18B12 1-265)”, the binding result is on record as “no binding”.

Source of the values: article PMC12694794.
